# From PMC3393737 (PLoS ONE, 2012)
# Molecular target: T1, ABCB6 (ABCB6-flag) (Homo sapiens, UniProt Q9NP58)
# T1 sequence (Q9NP58 1-842): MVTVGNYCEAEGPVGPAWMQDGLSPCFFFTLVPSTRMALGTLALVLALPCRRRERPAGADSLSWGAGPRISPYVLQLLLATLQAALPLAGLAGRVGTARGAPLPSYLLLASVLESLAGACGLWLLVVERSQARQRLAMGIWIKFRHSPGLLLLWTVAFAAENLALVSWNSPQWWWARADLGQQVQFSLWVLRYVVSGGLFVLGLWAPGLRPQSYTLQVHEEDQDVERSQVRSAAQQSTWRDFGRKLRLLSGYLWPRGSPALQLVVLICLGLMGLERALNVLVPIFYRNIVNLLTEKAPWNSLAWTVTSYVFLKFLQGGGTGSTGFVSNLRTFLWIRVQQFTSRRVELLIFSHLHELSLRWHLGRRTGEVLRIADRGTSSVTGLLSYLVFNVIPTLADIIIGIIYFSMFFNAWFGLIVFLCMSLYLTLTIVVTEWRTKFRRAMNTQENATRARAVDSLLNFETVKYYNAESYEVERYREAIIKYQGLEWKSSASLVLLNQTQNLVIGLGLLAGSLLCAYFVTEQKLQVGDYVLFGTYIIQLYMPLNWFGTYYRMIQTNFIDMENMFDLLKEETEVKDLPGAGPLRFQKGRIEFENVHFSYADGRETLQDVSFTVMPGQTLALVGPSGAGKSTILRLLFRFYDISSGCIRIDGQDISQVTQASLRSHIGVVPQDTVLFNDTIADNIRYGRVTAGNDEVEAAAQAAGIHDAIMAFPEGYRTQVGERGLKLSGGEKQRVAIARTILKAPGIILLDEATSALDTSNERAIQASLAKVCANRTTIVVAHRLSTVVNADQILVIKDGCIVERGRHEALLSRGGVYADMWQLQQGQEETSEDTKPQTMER
# Conditions: ATP present; does not displace ABCB6 from hemin-agarose at 20 µM, different site suggested
smiles,measurement,value
"CC(C)(C)CC(C)(C)c1ccc(OCCOCC[N+](C)(C)Cc2ccccc2)cc1 [BCL, benzethonium chloride]",inhibition of radiolabelled hemin uptake into mitochondria of ABCB6-expressing c,benzethonium chloride acts as a weak inhibitor of ABCB6 mediated transport of hemin
